PubChem BioAssay AID652248, Drosophila RNAi Screening Center, 2013

Aim: 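Kinases and phosphatases whose loss pushes fly blood cells toward elongated shapes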 (primary screen)
Cells: cultured Drosophila hemocytes
Knock-down reagent: long dsRNA against Drosophila genes
Read-out: 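Automated microscopy of stained actin, tubulin and nuclei; single-cell shape measures assigned to five reference shape types, giving a score per dsRNA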
Reading the numbers: elongated score: higher = more elongated bipolar cells; normal round score: higher = more normal rounded cells
Active means: 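a gene counts as active when its knock-down clearly increases the elongated score; a low similarity score was then used to rank the actives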
In all, the deposit lists 863 reagents; this is a random part of them. 32 of them (3.7%) count as active. 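Calls also used reproducibility and a similarity ranking whose scores are not deposited; many active genes show only modest elongated scores.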 The numbers tell different reagents against one gene apart. Not all columns of the deposit are shown. Not given: the amount of reagent, the time to read-out.

predicted target | dsRNA no. | elongated score, rep 1 | elongated score, rep 2 | normal round score, rep 1 | Outcome
Mtmr6 | 1 | -0.44 | – | -0.57 | inactive
Mtmr6 | 2 | 1.48 | – | -1.53 | inactive
dnk | 1 | 0.09 | – | -0.01 | inactive
dnk | 2 | 5.08 | – | -2.27 | inactive
Gcn2 | 1 | 0.21 | 0.97 | -0.81 | inactive
Doa | 1 | -0.53 | – | -1.19 | inactive
Doa | 2 | 0.16 | – | -1.78 | inactive
Doa | 3 | 1.41 | – | -0.91 | inactive
Doa | 4 | 0.64 | – | -2.92 | inactive
CG32944 | 1 | -0.53 | – | 0.27 | inactive
CG32944 | 2 | 1.06 | – | -1.55 | inactive
CG10089 | 1 | -0.32 | – | 0.17 | inactive
CG10089 | 2 | 3.6 | – | -1.45 | inactive
vari | 1 | 2.28 | – | -1.52 | inactive
lic | 1 | 0.16 | – | -3.19 | inactive

Copied from the list.
Under “elongated score, rep 1”, CG10089 #1 is entered as -0.32
vari, elongated score, rep 1 = 2.28
For “Outcome”, Gcn2 is entered as inactive
Under “normal round score, rep 1”, dnk #1 has -0.01
Result for Doa #4 under “Outcome”: inactive
Doa #3, elongated score, rep 1 = 1.41

Next records follow:
predicted target | dsRNA no. | elongated score, rep 1 | elongated score, rep 2 | normal round score, rep 1 | Outcome
CanB | 1 | -0.53 | – | -0.27 | inactive
CanB | 2 | 4.49 | – | -2.38 | inactive
dpp | 1 | -0.53 | – | 0.76 | inactive
dpp | 2 | -0.36 | – | -0.26 | inactive
dpp | 3 | 1.67 | – | -1.1 | inactive
dpp | 4 | 2.95 | – | -3.72 | inactive
Argk1 | 1 | 1.39 | -0.53 | -0.39 | inactive
Argk1 | 2 | -0.18 | – | 0.26 | inactive
Argk1 | 3 | -0.42 | – | 0.16 | inactive
Argk1 | 4 | -0.53 | – | -0.17 | inactive
Argk1 | 5 | -0.07 | – | -1.3 | inactive
mod(mdg4) | 1 | -0.36 | – | -0.13 | inactive
mod(mdg4) | 2 | 0.37 | – | -1.35 | inactive
mod(mdg4) | 3 | 0.95 | – | -0.54 | inactive
mod(mdg4) | 4 | -0.53 | – | 1.02 | inactive
mod(mdg4) | 5 | 0.05 | – | 0.59 | inactive
PRL-1 | 1 | -0.32 | – | 0.56 | inactive
PRL-1 | 2 | 0.88 | – | -1.79 | inactive
Nuak | 1 | -0.53 | – | -1.04 | inactive
Nuak | 2 | 0.39 | – | -1.8 | inactive
CG32568 | 1 | 1.9 | – | -1.94 | inactive
Adck5 | 1 | 0.46 | – | -0.03 | inactive
key | 1 | -0.32 | – | -0.71 | inactive
mtm | 1 | -0.53 | – | 0.56 | inactive
Drak | 1 | 1.12 | – | 0.15 | inactive
Drak | 2 | 3.7 | – | -1.52 | inactive
Drak | 3 | 3.61 | – | -3.64 | inactive
wdb | 1 | 1.32 | – | -0.7 | inactive
CG17698 | 1 | -0.53 | – | -0.89 | inactive
tws | 1 | 0.45 | – | -1.23 | inactive
tws | 2 | -0.13 | – | -0.41 | inactive
tws | 3 | 2.11 | – | -1.75 | inactive
